Test [1] deals with T1, diacylglycerol lipase-α (rat (endogenous in NAc core tissue)) (UniProt Q5YLM1).
T1 sequence: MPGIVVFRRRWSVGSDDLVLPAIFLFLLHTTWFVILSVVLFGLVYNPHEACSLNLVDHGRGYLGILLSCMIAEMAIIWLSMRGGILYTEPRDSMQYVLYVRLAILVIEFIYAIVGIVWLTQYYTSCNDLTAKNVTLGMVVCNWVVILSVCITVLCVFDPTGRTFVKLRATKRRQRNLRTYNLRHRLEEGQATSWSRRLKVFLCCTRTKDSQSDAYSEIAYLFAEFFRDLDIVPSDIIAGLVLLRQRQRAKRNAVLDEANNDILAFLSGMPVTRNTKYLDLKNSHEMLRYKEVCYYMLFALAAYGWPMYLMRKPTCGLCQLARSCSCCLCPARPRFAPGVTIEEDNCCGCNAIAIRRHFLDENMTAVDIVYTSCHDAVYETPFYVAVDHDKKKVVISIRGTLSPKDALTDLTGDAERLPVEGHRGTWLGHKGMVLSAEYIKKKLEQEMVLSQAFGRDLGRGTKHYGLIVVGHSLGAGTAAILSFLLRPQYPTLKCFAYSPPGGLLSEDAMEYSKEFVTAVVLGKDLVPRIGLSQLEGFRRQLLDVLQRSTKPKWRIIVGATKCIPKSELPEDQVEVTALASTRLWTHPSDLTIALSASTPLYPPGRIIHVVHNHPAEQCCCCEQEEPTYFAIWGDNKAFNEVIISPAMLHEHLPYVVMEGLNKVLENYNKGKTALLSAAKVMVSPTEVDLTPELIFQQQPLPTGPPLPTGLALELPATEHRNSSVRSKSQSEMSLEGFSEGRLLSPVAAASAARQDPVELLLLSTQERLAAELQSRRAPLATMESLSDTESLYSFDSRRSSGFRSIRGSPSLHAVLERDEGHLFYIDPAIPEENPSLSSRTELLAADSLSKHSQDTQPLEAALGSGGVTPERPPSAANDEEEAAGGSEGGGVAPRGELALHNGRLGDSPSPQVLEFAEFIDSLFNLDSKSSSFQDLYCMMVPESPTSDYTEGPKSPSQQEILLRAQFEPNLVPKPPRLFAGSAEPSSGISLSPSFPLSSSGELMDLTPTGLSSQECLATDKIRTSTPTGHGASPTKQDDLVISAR
The test can be described thus: co-IP; DGL immunoprecipitated with DGL-α antibody on protein A/G agarose from 100 μg rat NAc core homogenate (overnight, 4°C; lysis buffer 25 mM HEPES pH 7.4, 500 mM NaCl, 0.1% NP-40, 1% Triton, 0.5% deoxycholate); bound fraction immunoblotted; drug-naive rats and rats on WD55 after saline or cocaine self-administration.

Chains of the proteins cited; added tags and fusions are not shown.
UniProt P08413: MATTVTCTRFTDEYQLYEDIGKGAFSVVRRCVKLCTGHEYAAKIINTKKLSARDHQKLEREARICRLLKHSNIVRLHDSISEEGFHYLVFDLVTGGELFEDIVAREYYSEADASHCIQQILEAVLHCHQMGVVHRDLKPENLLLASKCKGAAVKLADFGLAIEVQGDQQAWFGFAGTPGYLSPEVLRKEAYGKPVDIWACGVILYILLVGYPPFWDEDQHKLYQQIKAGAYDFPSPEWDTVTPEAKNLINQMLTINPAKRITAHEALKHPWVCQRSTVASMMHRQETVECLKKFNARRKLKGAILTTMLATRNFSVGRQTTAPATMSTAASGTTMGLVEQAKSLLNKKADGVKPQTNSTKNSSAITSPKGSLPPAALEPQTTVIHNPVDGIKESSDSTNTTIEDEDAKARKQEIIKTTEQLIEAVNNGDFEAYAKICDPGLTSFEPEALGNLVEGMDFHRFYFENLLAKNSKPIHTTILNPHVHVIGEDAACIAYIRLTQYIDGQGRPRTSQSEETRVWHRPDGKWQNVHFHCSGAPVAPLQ
UniProt P11275: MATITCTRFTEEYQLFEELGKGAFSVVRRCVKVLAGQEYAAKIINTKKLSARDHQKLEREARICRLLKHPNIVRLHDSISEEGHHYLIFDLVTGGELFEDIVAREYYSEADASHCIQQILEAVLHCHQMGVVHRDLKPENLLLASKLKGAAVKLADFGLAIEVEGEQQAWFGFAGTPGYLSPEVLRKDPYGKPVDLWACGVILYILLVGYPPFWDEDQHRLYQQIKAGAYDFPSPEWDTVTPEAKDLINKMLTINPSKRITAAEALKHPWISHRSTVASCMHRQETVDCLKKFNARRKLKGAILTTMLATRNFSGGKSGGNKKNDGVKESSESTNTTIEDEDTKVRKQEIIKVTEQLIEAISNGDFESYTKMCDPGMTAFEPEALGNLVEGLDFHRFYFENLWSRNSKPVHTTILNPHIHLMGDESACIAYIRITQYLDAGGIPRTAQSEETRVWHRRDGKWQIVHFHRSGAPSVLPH

The target of test [2] is T1, diacylglycerol lipase-α (rat (endogenous in NAc core tissue)). Described as above. This is another data set of the same source.

Like-named read-outs stand apart in the source and are kept apart here. These are yes or no findings as the source states them, for the method shown. Binding seen in cells or lysates may run through a third protein. Some binding calls cover weakened binding; strength is not graded here.

For “Ca2+/calmodulin-dependent protein kinase IIβ (total) (from UniProt P08413 1-542) (enzyme)”, in test [1], the binding entry is given as “binds”.

“phosphorylated CaMKIIβ (from UniProt P08413 1-542) (enzyme)”: in test [1], the binding result is recorded as “binds”.

“phosphorylated (Thr286) CaMKIIα (from UniProt P11275 1-478) (enzyme)”: in test [1], the binding entry is “binds”.

For the molecule “Ca2+/calmodulin-dependent protein kinase IIα (total) (from UniProt P11275 1-478) (enzyme)”, the binding result in test [1] is reported as “binds”.

B1: Homer2 (protein, UniProt O88801 1-354)
chain: MGEQPIFTTRAHVFQIDPSTKKNWVPASKQAVTVSYFYDVTRNSYRIISVDGAKVIINSTITPNMTFTKTSQKFGQWADSRANTVFGLGFSSEQQLTKFAEKFQEVREAARLARDKSQEKIETSSNHSQESGCETPSSTQASSVNGTDDEKASHASPADTHLKSENDKLKIALTQSAANVKKWEIELQTLRESNARLTTALQESAASVEQWKRQFSICRDENDRLRSKIEELEEQCGEINREKEKNTQLKRRIEELESEVREKEMELKDLRKQSEIIPQLMSECEYVSEKLEAAERDNQNLEDKVRSLKTDIEESKYRQRHLKGELKSFLEVLDGKIDDLHDFRRGLSKLGTDN
For the molecule B1, the binding entry in test [2] is on record as “binds”.

The record behind these values is PMC8503962.
